Experimental data from US20240272165A1, “A METHOD TO IDENTIFY EXCEPTIONAL ANTI-TUMOR BENEFIT FROM BRAF TARGETED THERAPIES” (The Brigham and Women's Hospital, priority 2021, published 2024).
For at least one compound, name, drawing or mass did not settle the structure.

Legend:
Malme3M = test: growth rate effect of drugs in sgGAPDHS genome-edited cells versus control; assay type: cell-based; conditions: spCas9/sgGAPDHS genome-editing
Text: FIGS. 8A-8C. GAPDHS is required for BRAF inhibitor sensitivity in vitro. Lentiviral spCas9/sgGAPDHS genome-editing in Malme3M 8A) reduces protein levels (WB) but not signaling consequences following vemurafenib or PD-0325901. 8B) reduction in the inherent NAD+/NADH ratio is seen, but not treatment affected changes; however the basal NADP+/NADPH ratio is higher and treatment causes divergent changes. 8C) Growth rates are less affected by vemurafenib, PD-0325901, cobimetinib, and PLX7904 due to sgGAPDHS targeting. Significance using 2-sided, 2-sample t-test; *p<0.05; **p<0.01.
We generated short-guide RNA (sgRNA) for CRISPR/Cas9-mediated genome-editing within the pLentiCRISPRv2 system to assess whether GAPDHS regulates sensitivity to BRAF-targeted drugs through the metabolic state. […] (FIG. 8C). […] We will expand these analyses to also include SKMEL28 and UACC62, and assess dabrafenib and encorafenib. We will also measure basal and changes following BRAF/MEK-inhibitor on the inherent metabolic state, measured as NAD(P)+/NAD(P)H ratios and GAPDH/S activity.

SKMEL2(NRAS-Q61R) = test: drug-mediated growth inhibition as percentage of baseline doubling rate; assay type: cell-based; conditions: 1 μM; BRAF-wt cell line SKMEL2(NRAS-Q61R)
Text: FIGS. 5A-5B. Response to BRAF/MEK inhibition in melanoma cells was associated with the inherent metabolic state. 5A) Effects on cell doubling rates caused by vemurafenib and PD0325901 treatment in melanoma and carcinoma cell lines. […] 5B) Pearson metric of PD-0325901 growth rate effects used on gene-level transcription data (HuExon 1.0ST) for Gene Set Enrichment Analysis (GSEA) identified specific pathways associated with sensitivity, particularly oxidative phosphorylation, and resistance to BRAF/MEK inhibition.
Because melanoma cells undergo metabolic shift in response to BRAF- and MEK-targeted therapy, we wanted to characterize the drug sensitivities across a melanoma cell line cohort (FIG. 4A). To ensure that rapidly growing cells versus slow were compared in a normalized manner, we assessed the degree of drug-mediated growth inhibition as percentage of the baseline doubling rate for each cell line (FIG. 5A). This approach was based on classical chemotherapy effect measures [26;27 recently used by others].

melanoma = melanoma patients; cited from earlier work

## CO[C@H]1C[C@@H]2CC[C@@H](C)[C@@](O)(O2)C(=O)C(=O)N2CCCC[C@H]2C(=O)O[C@H]([C@H](C)C[C@@H]2CC[C@@H](O)[C@H](OC)C2)CC(=O)[C@H](C)/C=C(\C)[C@@H](O)[C@@H](OC)C(=O)[C@H](C)C[C@H](C)/C=C/C=C/C=C/1C [rapamycin]
Malme3M
  sensitivity (measured as growth rate effect) of sgGAPDHS cells versus control: did not, however, observe reduced sensitivity

## CCCS(=O)(=O)Nc1ccc(F)c(C(=O)c2c[nH]c3ncc(-c4ccc(Cl)cc4)cc23)c1F [vemurafenib]
SKMEL2(NRAS-Q61R)
  effect on growth rate (cell doubling rate): did not affect growth rate
melanoma
  extension of survival compared to standard chemotherapy: 6-8 months
Malme3M
  sensitivity (measured as growth rate effect) of sgGAPDHS cells versus control: reduced sensitivity
